For five molecules, binding results are on record in article PMC3968024.

Sequences of proteins named here, by UniProt entry; tags and fusion partners are left off. A change or cut given only in a name is not applied to a line headed by its entry.
UniProt Q6ZN44: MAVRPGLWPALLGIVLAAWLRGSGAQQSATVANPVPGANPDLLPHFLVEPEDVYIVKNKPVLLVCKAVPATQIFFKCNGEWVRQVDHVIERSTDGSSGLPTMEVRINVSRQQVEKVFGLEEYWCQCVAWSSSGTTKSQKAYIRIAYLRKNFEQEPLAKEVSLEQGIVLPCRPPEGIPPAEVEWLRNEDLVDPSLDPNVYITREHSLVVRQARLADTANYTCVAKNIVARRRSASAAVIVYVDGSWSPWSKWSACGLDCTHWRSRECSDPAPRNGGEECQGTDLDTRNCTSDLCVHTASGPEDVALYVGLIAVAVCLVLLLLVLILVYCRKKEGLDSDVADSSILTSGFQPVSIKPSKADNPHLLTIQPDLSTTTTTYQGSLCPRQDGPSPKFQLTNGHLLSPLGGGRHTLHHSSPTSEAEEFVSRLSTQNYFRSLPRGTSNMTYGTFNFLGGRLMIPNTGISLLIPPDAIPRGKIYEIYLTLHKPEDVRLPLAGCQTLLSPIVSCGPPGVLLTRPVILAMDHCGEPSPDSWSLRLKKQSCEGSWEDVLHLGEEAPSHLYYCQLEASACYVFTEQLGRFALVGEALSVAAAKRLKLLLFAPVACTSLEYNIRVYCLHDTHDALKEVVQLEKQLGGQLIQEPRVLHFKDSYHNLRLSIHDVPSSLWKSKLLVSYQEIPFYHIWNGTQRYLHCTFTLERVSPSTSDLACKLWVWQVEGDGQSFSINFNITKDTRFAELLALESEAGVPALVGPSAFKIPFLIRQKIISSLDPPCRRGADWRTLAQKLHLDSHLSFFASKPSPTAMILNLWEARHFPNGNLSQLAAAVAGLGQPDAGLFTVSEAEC

Substitutions are numbered along the chain they refer to. Names may count otherwise. No constants are given. Whether binding was seen depends on the method and setting. A result given as binding can be weak or reduced; the word gives no strength. Sequences can lack the tags named with a protein. For some of these results: In cells and extracts the contact can be indirect.

The target in assay [1] is T1, FANCC C-terminal caspase cleavage fragment FANCC^307-558 (yeast two-hybrid fusion) (UniProt Q00597).
T1 sequence: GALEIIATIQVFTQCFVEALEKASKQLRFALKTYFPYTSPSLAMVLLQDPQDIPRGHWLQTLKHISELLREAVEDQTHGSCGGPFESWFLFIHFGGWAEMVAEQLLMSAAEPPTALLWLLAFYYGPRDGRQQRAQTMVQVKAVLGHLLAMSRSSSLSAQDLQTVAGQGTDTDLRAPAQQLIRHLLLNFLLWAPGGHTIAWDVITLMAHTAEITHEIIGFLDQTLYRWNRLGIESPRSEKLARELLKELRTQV
Description: two-hybrid; directed assays; UNC5A and FANCC constructs in pGBKT7 or pGADT7 co-transformed into AH109; growth on stringent nutritional selection; at least three independent transformations.

The target of assay [2] is T2, FANCC^307-558-L554P (yeast two-hybrid fusion) (UniProt Q00597).
T2 sequence: T1 sequence with L248P
The description is as above.

Assay [3] concerns the target T3, FANCC N-terminal caspase cleavage fragment FANCC^1-306 (yeast two-hybrid fusion) (UniProt Q00597).
T3 sequence: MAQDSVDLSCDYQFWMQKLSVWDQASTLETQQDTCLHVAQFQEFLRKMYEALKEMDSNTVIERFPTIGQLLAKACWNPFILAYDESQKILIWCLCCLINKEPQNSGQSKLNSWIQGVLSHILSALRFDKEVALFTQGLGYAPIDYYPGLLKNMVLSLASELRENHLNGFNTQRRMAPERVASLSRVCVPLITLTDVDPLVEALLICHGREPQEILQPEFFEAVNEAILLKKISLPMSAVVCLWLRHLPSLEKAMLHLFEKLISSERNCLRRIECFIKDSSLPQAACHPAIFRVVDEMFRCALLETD
The assay is described as above.

In assay [4] the target is T4, full-length FANCC (yeast two-hybrid fusion) (UniProt Q00597).
T4 sequence: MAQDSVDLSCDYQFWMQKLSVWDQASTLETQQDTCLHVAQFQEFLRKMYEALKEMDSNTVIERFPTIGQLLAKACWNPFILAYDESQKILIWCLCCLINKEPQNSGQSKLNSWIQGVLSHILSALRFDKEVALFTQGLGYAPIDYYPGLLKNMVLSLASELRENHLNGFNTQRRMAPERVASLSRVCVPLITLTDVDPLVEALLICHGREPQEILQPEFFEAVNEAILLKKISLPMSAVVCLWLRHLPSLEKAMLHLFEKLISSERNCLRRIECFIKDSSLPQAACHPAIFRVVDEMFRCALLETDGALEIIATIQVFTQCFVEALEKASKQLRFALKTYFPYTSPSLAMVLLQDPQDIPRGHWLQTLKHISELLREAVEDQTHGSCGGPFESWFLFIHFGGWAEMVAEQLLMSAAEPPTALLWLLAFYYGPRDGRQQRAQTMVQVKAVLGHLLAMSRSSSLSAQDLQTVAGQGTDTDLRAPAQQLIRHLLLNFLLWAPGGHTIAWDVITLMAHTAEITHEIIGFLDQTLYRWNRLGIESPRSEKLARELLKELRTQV
The assay is described as above.

The target in assay [5] is T5, HA-tagged full-length FANCC (UniProt Q00597).
T5 sequence: T4 sequence
Description: co-IP; HEK293T transiently transfected with both proteins; lysis in 50 mM Tris-HCl, 150 mM NaCl, 1% Triton X-100; protein A-agarose beads; Western blotting; control IgG. (A western blot detects proteins with antibodies after separation by electrophoresis.)

Assay [6] addresses Xpress-tagged death-domain deletion mutant UNC5A (UNC5A^ΔDD) (human). The assay is described as above.

For “UNC5A C-terminus part containing the death domain UNC5A^DD (yeast two-hybrid fusion) (from UniProt Q6ZN44) (domain or fragment)”, the binding entry in assay [1], in assay [2], in assay [3] and in assay [4] was “binds” throughout.
For “UNC5A death domain deletion mutant UNC5A^ΔDD (yeast two-hybrid fusion) (human) (domain or fragment)”, the results for the binding result in assay [1], in assay [3] and in assay [4] were “no binding”, “binds” and “no binding”, respectively.
Regarding “Xpress-tagged death-domain deletion mutant UNC5A (UNC5A^ΔDD) (human) (domain or fragment)”, the binding entry in assay [5] was “binds weakly”.

B1: HA-tagged full-length FANCC (protein, UniProt Q00597 1-558)
chain: T4 sequence
For the molecule B1, in assay [6], the binding result is reported as “binds weakly”.

B2: HA-tagged full-length FANCC harboring the L554P mutation (HA-FANCC^L554P) (protein, UniProt Q00597 1-558)
chain: T4 sequence with L554P
Take B2: the binding result in assay [6] is recorded as “binds weakly”.
